The list shows a part of the results.

The chains behind the UniProt entries cited, without tags or fusion partners. Where a name states a change or a piece, a line headed by the entry shows the natural chain unless it says otherwise.
UniProt Q6KCM7: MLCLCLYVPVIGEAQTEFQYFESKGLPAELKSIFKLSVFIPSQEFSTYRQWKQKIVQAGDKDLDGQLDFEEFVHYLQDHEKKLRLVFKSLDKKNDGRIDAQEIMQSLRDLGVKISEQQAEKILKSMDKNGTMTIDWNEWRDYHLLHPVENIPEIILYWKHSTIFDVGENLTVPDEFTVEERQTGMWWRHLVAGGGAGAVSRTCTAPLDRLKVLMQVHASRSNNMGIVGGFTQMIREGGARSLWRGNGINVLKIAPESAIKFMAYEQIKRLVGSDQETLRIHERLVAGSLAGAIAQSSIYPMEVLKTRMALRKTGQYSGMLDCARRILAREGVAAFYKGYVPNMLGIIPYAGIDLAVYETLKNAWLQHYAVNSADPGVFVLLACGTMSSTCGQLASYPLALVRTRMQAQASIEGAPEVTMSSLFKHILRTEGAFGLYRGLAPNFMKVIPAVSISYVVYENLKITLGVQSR
UniProt Q9H0C2: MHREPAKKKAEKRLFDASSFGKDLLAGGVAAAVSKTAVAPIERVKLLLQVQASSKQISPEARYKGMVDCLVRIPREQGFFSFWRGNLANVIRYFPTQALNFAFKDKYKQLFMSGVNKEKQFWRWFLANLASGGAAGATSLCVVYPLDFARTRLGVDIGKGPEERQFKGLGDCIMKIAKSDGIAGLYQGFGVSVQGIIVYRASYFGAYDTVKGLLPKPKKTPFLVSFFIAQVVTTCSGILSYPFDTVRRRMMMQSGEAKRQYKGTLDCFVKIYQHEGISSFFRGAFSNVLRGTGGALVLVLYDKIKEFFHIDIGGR
UniProt O95258: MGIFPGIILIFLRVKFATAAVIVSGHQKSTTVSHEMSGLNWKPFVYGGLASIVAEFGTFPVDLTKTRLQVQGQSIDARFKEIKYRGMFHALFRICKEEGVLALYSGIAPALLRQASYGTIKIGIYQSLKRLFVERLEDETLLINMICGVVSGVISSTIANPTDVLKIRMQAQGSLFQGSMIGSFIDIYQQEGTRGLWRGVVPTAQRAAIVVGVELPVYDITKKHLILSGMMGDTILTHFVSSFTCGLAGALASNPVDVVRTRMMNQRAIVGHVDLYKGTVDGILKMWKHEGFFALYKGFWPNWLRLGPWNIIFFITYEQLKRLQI
UniProt Q96QD8: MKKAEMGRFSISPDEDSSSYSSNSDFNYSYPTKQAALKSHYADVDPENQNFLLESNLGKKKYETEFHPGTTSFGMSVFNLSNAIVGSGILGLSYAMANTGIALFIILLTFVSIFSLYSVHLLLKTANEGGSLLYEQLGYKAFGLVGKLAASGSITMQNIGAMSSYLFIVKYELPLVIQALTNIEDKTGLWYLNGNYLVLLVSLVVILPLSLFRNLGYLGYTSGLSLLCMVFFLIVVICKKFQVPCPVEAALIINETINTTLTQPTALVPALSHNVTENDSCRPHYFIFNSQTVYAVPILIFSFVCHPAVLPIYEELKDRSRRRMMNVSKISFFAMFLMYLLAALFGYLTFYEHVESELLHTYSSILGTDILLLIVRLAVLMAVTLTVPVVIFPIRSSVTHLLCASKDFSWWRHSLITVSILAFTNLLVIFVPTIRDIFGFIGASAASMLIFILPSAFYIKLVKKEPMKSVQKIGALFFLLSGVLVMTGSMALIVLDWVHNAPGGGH
UniProt P30825: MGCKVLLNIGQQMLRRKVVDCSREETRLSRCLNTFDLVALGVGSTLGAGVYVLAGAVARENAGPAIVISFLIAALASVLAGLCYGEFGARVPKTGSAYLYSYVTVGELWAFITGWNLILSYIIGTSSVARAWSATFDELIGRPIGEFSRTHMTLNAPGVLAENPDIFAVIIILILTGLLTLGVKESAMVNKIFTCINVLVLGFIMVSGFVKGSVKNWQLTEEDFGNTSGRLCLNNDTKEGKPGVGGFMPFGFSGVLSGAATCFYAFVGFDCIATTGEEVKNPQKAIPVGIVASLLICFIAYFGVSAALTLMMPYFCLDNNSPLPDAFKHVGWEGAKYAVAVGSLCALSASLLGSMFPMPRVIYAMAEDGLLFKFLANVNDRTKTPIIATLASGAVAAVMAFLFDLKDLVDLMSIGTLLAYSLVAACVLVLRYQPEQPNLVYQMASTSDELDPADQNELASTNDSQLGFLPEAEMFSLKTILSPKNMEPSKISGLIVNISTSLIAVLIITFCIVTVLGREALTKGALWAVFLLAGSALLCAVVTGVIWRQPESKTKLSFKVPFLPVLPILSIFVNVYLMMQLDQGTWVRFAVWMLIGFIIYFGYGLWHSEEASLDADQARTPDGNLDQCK
UniProt Q6XR72: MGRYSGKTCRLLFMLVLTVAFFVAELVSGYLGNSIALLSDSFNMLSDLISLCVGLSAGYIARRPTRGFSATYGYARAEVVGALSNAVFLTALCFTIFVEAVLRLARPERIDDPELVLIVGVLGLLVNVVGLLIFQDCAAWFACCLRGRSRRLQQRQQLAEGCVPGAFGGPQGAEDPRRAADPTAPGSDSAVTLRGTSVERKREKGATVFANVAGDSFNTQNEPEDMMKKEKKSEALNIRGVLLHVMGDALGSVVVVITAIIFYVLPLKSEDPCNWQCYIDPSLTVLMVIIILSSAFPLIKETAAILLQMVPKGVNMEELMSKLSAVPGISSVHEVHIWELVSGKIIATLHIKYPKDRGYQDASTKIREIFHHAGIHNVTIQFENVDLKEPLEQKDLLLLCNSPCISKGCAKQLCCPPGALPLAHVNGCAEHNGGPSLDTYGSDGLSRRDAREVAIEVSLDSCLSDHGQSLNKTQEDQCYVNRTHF
UniProt Q8N357: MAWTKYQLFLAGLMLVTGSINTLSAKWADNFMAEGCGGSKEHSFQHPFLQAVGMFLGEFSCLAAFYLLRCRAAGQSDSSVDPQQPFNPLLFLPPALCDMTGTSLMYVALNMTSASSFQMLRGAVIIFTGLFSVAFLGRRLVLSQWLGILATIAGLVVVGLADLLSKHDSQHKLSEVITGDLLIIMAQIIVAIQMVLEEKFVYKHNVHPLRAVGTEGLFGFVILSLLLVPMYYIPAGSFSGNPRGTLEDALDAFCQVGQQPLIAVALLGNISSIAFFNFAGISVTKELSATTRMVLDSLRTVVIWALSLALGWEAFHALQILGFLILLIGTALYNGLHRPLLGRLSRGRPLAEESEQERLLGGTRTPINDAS
UniProt Q9BRY0: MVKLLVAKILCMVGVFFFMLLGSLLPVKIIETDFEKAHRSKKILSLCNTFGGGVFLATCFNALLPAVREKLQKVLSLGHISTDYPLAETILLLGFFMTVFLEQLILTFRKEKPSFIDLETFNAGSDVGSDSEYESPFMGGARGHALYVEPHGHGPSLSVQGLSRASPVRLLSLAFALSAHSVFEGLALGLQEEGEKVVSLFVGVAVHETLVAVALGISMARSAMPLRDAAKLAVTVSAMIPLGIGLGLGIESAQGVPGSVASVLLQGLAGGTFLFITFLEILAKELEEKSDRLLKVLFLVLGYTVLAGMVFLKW
UniProt Q8TB61: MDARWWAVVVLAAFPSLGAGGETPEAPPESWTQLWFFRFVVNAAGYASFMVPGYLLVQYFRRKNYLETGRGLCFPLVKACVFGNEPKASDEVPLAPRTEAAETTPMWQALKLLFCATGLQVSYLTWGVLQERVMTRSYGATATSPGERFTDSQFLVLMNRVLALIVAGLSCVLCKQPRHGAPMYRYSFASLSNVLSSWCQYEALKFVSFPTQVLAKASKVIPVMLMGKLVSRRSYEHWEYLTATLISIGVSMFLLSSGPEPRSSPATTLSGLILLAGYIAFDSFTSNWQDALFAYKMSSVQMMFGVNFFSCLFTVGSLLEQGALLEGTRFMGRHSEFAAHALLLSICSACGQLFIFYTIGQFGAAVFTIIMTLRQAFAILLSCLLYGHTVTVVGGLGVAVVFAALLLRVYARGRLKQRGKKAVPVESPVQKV
UniProt Q9H1U9: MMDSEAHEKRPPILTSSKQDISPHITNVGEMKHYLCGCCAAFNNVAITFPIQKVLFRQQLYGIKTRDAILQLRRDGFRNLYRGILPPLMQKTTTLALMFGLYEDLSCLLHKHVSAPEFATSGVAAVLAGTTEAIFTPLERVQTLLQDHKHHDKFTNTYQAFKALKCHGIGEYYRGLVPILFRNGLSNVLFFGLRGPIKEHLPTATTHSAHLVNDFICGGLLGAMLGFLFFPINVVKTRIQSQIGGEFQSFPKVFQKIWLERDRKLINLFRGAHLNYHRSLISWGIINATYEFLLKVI
UniProt L0R6Q1: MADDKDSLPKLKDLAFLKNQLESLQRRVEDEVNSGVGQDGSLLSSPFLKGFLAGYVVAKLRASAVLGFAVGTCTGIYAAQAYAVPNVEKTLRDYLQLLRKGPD
UniProt Q96DW6: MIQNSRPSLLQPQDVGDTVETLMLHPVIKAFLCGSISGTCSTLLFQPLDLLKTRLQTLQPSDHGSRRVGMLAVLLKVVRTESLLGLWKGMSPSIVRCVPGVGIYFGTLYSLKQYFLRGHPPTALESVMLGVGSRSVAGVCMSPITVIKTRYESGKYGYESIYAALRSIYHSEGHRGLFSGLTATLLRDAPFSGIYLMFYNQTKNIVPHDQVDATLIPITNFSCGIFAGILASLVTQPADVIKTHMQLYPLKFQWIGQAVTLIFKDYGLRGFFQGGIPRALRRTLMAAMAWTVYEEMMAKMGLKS
UniProt P12235: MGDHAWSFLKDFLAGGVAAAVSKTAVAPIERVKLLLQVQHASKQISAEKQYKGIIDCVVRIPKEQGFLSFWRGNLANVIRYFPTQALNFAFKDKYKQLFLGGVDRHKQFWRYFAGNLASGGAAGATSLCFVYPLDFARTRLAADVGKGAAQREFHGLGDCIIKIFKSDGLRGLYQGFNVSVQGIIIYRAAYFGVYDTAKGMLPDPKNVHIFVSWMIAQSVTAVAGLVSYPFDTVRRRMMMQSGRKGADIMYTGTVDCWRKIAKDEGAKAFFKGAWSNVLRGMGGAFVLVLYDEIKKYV
UniProt Q8IYB5: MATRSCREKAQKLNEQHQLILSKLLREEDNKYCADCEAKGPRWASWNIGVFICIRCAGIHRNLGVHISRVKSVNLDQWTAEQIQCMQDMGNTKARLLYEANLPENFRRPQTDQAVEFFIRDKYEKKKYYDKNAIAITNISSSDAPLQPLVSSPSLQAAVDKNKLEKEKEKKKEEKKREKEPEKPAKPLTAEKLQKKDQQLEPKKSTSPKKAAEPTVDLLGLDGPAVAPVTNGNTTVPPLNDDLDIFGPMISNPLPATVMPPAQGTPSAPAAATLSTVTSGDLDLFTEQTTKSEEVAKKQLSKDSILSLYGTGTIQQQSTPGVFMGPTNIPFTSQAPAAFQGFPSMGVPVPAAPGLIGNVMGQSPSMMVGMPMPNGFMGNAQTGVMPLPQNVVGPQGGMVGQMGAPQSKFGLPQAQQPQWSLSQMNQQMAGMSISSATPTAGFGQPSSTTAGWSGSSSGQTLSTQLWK
UniProt P52569: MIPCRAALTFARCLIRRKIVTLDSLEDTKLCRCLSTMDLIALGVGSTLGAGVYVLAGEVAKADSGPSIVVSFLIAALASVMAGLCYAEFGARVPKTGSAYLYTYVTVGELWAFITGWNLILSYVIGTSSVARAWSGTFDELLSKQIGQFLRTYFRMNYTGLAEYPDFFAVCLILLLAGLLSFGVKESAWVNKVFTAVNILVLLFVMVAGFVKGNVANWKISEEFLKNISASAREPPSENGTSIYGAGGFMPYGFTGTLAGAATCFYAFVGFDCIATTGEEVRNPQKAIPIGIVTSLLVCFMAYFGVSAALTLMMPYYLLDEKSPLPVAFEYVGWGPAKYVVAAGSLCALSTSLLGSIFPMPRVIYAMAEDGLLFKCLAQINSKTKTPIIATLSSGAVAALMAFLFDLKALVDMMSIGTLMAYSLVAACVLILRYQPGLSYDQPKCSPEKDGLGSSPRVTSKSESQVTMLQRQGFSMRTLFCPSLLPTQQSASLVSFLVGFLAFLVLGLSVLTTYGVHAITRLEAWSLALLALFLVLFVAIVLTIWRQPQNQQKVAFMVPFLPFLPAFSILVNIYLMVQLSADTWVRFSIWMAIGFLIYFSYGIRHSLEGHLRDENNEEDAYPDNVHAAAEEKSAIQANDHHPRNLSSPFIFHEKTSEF
UniProt Q8NEW0: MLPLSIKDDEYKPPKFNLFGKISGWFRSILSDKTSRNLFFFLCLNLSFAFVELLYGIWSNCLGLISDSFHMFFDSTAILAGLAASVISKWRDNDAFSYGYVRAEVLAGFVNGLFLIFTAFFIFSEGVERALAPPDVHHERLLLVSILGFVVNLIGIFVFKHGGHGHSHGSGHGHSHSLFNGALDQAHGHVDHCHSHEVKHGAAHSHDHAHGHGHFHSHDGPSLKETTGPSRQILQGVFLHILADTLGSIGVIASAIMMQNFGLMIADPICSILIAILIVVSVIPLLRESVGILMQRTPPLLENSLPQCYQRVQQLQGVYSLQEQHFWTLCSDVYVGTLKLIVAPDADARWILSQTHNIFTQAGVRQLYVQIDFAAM

The values below come from the supplement of paper PMC10849652.

Compound in this assay: CN1CCC(CNc2ccc3ncc(-c4cccc(OC(F)(F)F)c4)n3n2)CC1
Briefly: log2 fold change, soluble protein after heating vs DMSO (PISA); higher = thermal stabilisation; K562 lysate, 10 uM; active = over 0.2 and 3.5 SD of the protein, either way, in both replicates (recomputed). The essentials: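 Following dounce homogenisation of K562 pellets in PBS pH 7.4 with 1 mM MgCl2, crude extract at 1 mg/mL protein was incubated for 30 min with 10 μM compound. Aliquots were then heated for 3 min over 48°C-58°C and pooled, NP-40 was added to 0.5% at 4°C, and soluble protein was recovered as the supernatant at 21,000xg for 90 min. Channel-sum-equalised TMTpro 16plex LC-MS/MS quantified this protein. Each value, from duplicates, is a log-two fold change in thermal stability relative to solvent controls.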
For SLC9A6 isoform 2 (UniProt Q92581), the log2 fold change is inactive: -0.108.

With SLC25A25 isoform 3 (UniProt Q6KCM7), the log2 fold change is inactive: -0.053.

Consider SLC38A1 (UniProt Q9H2H9), for which the log2 fold change is inactive: 0.102.

As for SLC25A31 (UniProt Q9H0C2), the log2 fold change was inactive: 0.031.

Take SLC25A14 isoform 3 (UniProt O95258): the log2 fold change is inactive: 0.101.

SLC38A2 (UniProt Q96QD8): the log2 fold change was inactive: 0.099.

For SLC7A1 (UniProt P30825), the log2 fold change was inactive: 0.044.

Take SLC25A20 (UniProt O43772): the log2 fold change was inactive: 0.017.

SLC33A1 (UniProt O00400): the log2 fold change is inactive: -0.005.

On to SMAP2 (UniProt Q8WU79), for which the log2 fold change is inactive: -0.001.

As to SLC30A10 (UniProt Q6XR72), the log2 fold change is inactive: -0.146.

In the case of SLC35F6 (UniProt Q8N357), the log2 fold change was inactive: -0.082.

Regarding SLC39A3 (UniProt Q9BRY0), the log2 fold change was inactive: 0.062.

Regarding SLC35B2 (UniProt Q8TB61), the log2 fold change is inactive: 0.006.

Turning to SLC25A51 (UniProt Q9H1U9), the log2 fold change was inactive: -0.057.

SLC25A6 (UniProt P12236): the log2 fold change was inactive: 0.024.

As to SLC25A15 (UniProt Q9Y619), the log2 fold change is inactive: 0.038.

Turning to SLC25A37 (UniProt Q9NYZ2), the log2 fold change is inactive: 0.082.

For the target SLC9A1 (UniProt P19634), the log2 fold change is inactive: 0.022.

Turning to SLC35A4 (UniProt L0R6Q1), the log2 fold change is inactive: 0.027.

As for SLC25A38 (UniProt Q96DW6), the log2 fold change was inactive: 0.067.

With SLC25A46 (UniProt Q96AG3), the log2 fold change is inactive: 0.037.

Turning to SLC39A14 (UniProt Q15043), the log2 fold change is inactive: -0.007.

As to SLK isoform 2 (UniProt Q9H2G2), the log2 fold change was inactive: 0.091.

In the case of SLC43A1 (UniProt O75387), the log2 fold change is inactive: -0.008.

Consider SLC25A22 (UniProt Q9H936), for which the log2 fold change is inactive: 0.007.

With SLC25A4 (UniProt P12235), the log2 fold change is inactive: 0.052.

Take SLC26A6 (UniProt Q9BXS9): the log2 fold change is inactive: 0.036.

For the target SLC25A11 (UniProt Q02978), the log2 fold change was inactive: 0.014.

With SLC25A42 (UniProt Q86VD7), the log2 fold change was inactive: -0.092.

As to SLC27A2 (UniProt O14975), the log2 fold change is inactive: 0.082.

SLC29A1 isoform 2 (UniProt Q99808): the log2 fold change is inactive: 0.121.

With SMAP1 isoform 2 (UniProt Q8IYB5), the log2 fold change was inactive: -0.001.

Take SLC7A2 isoform 3 (UniProt P52569): the log2 fold change is inactive: 0.23.

For SLC25A26 (UniProt Q70HW3), the log2 fold change was inactive: 0.077.

In the case of SLC30A7 (UniProt Q8NEW0), the log2 fold change is inactive: 0.03.

As for SLC25A21 (UniProt Q9BQT8), the log2 fold change is inactive: 0.038.

For the target SLC44A2 (UniProt Q8IWA5), the log2 fold change was inactive: -0.062.

As to SLC6A8 isoform 2 (UniProt P48029), the log2 fold change is inactive: -0.044.
